# Source: article PMC7819943, “Rice protein-binding microarrays: a tool to detect cis-acting elements near promoter regions in rice”
# This is one part of the list.
# Target: T1, OsSMF1 (Oryza sativa, UniProt Q6ZLB0 1-436)
# T1 sequence: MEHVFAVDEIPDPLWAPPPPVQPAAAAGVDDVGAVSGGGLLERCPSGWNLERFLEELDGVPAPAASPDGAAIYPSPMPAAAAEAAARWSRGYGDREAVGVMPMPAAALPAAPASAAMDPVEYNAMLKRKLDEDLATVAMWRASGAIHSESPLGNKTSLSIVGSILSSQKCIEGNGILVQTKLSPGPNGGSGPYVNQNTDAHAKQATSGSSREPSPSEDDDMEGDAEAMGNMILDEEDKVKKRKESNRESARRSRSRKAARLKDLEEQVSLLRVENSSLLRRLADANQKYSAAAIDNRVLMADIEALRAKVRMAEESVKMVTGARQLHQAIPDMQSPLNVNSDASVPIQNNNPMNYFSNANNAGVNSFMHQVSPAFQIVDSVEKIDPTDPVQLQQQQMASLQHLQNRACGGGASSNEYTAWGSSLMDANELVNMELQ
# Assay: protein-binding microarray (RPBM); PBS, 2% BSA, 51.3 ng/ul salmon testes DNA, 50 uM zinc acetate, 200 nM TF, 25 C, 1 h; high values mean tight binding
# Conditions: protein: recombinant; tags: N-terminal polyhistidine and DsRed monomer fusion (pET32a); chain copies: 2; label: CyDye5-dUTP incorporated in the synthesized complementary strand; 3' TTTTT single-stranded linker to array surface; dsDNA, one strand shown
# Summary of the method: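 Binding signal here means per-feature fluorescence intensity in arbitrary units. The values were read on an Axon 4000B scanner after a custom Agilent array, double-stranded by primer extension with Cy5-dUTP, was incubated with 200 nM protein at 25 °C for 1 h in PBS with 2% BSA, salmon testes DNA and 50 µM zinc acetate, then washed. The proteins were transcription factors with an N-terminal polyhistidine tag and DsRed, expressed in E. coli BL21-CodonPlus and purified on Ni–NTA.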
row,Sequence,binding signal
1,GTAGCACTGTCGTCACCCGGCGCTGGATGGAGTCCGGCCCCGGAGTCACCTAGTGCAG,3830 fluorescence intensity (a.u.)
2,ATGAAATGGACCTCAAGATCGAGTCATGACAAGACAACGGCGGAGTCACCTAGTGCAG,4150 fluorescence intensity (a.u.)
3,TAAAACACTCAATGTATCCGTGACTCGAATCATCGATGAACGGAGTCACCTAGTGCAG,3380 fluorescence intensity (a.u.)
4,TCTGGACTGTGTGTTCTTCTTTGGTGGCAGATTTGGTTTGCGGAGTCACCTAGTGCAG,3710 fluorescence intensity (a.u.)
5,TGCAATCTTTCGTAACAATCTCTGCCACGGTGCACCCCTCCGGAGTCACCTAGTGCAG,3320 fluorescence intensity (a.u.)
6,ATCCCAACTATCTTCATAAAGAAGTTGAAAATCATTTCGTCGGAGTCACCTAGTGCAG,30700 fluorescence intensity (a.u.)
7,GGTCCAGCGGGTGTCCCTCCACGTCGACCCGGCGAGGGCGCGGAGTCACCTAGTGCAG,7940 fluorescence intensity (a.u.)
8,GTAGCAGTGTAAGTGTGAGTCACACTGTCATTTGTGCTAGCGGAGTCACCTAGTGCAG,6810 fluorescence intensity (a.u.)
9,CTCGGCAGTTTTGACTCCGGTTTTGTTCGACGTGGCAGCTCGGAGTCACCTAGTGCAG,12200 fluorescence intensity (a.u.)
10,GATCTGGTGCGGGGAGAGCCCCACGTCCTCGCTGGTGGCGCGGAGTCACCTAGTGCAG,4270 fluorescence intensity (a.u.)
11,ACTTTGTTGCTCAGCCTGTCAGATAATGGGCCATATCTCGCGGAGTCACCTAGTGCAG,3200 fluorescence intensity (a.u.)
12,CAGTCAACACCAGGAGCTGAGCTGTACAAATTGGGCCGCACGGAGTCACCTAGTGCAG,5660 fluorescence intensity (a.u.)
13,CCGATCTCCGGCCCACCCACGTCACCCCACCCACTGGCTGCGGAGTCACCTAGTGCAG,17800 fluorescence intensity (a.u.)
14,CAAATCGACAAATCTAGATATATGATTACATATATAACATCGGAGTCACCTAGTGCAG,23000 fluorescence intensity (a.u.)
15,TGGAATTTCCCCTGTGATTACATACGTGTGCTCGTAATGTCGGAGTCACCTAGTGCAG,4700 fluorescence intensity (a.u.)
16,CAGGGTTATATAATGGGTCTTATTAATAGTCTACGTTTAACGGAGTCACCTAGTGCAG,3250 fluorescence intensity (a.u.)
17,AAATTAATAGGATGCCACATCCTTATCCTAGATGGAACAACGGAGTCACCTAGTGCAG,3530 fluorescence intensity (a.u.)
18,CCCAATCTTGCGGTCACGTCGTTGTGAAACATACTAGGTCCGGAGTCACCTAGTGCAG,26300 fluorescence intensity (a.u.)
19,GCACAGTTGCAACCTCACACTGAGCGTCATTCAGTCAATTCGGAGTCACCTAGTGCAG,3400 fluorescence intensity (a.u.)
20,CCATGGCGGGCGAGTTAGTTGGTCAGAGTTGTAGTTAACCCGGAGTCACCTAGTGCAG,3180 fluorescence intensity (a.u.)
21,TGTGGTTGGTGTCGATTTGGAATGGGGTGAAATGGACTGGCGGAGTCACCTAGTGCAG,3260 fluorescence intensity (a.u.)
22,AGTGCTTTATCACACAGAATCAATACCCAAGAAGCATATGCGGAGTCACCTAGTGCAG,41000 fluorescence intensity (a.u.)
23,TTGGGTGCTAGCCGTGCAATTACGCGGGCCACCCAGCTAGCGGAGTCACCTAGTGCAG,3160 fluorescence intensity (a.u.)
24,GACGTGCTAAACATGGTGGGGTTAGGCGTCACCGATGGGACGGAGTCACCTAGTGCAG,3490 fluorescence intensity (a.u.)
25,TGCGTCGTTCTCCACAAACTCAACCACCAGTGACTCCTACCGGAGTCACCTAGTGCAG,3220 fluorescence intensity (a.u.)
26,CTATTGAATGAAATTGACGTGTCGCCCGTTTGTTAAAATACGGAGTCACCTAGTGCAG,9070 fluorescence intensity (a.u.)
27,AAGGTCAACGGCACGTGGCCGCAGGTGCCCACCTCCAGCTCGGAGTCACCTAGTGCAG,5200 fluorescence intensity (a.u.)

# 2 entries picked at random from the list so far, as already listed:
row,Sequence,binding signal
25,TGCGTCGTTCTCCACAAACTCAACCACCAGTGACTCCTACCGGAGTCACCTAGTGCAG,3220 fluorescence intensity (a.u.)
11,ACTTTGTTGCTCAGCCTGTCAGATAATGGGCCATATCTCGCGGAGTCACCTAGTGCAG,3200 fluorescence intensity (a.u.)

# Carrying on:

row,Sequence,binding signal
1,TTAAGCGCTATGTGAACACCACGTAGACACCATGTCAGTCCGGAGTCACCTAGTGCAG,8890 fluorescence intensity (a.u.)
2,CACTACAAAAGACATTTGCCATGTCATGTCATGTCGCATACGGAGTCACCTAGTGCAG,7450 fluorescence intensity (a.u.)
3,GTGGGGCTGACGACGACGACGAGGGCGACGGCGGCGTAGCCGGAGTCACCTAGTGCAG,5510 fluorescence intensity (a.u.)
4,CGGATGCGTCAGCGAGGTGATGATCCATGGGAGGCCCAACCGGAGTCACCTAGTGCAG,3360 fluorescence intensity (a.u.)
5,ATTTCACAAACATGCAAGTTAAAATTCGACTTATACAATTCGGAGTCACCTAGTGCAG,16400 fluorescence intensity (a.u.)
6,CGTCGTCGTCGTCATCTCCTCTTTGGTTTCTCCTGAACAACGGAGTCACCTAGTGCAG,4420 fluorescence intensity (a.u.)
7,GAAAACTAGTCCAAAATGAGTCTTTGCTTCAATGCAAACGCGGAGTCACCTAGTGCAG,39000 fluorescence intensity (a.u.)
8,GCCGCCCTTTCTCCTCCTCCCTCCACGAACCACGAATCCCCGGAGTCACCTAGTGCAG,3700 fluorescence intensity (a.u.)
9,TCACTACAGGCTGATCATGGTAGTAAAGTCCACAACTCCACGGAGTCACCTAGTGCAG,3260 fluorescence intensity (a.u.)
10,CTGCGCGGCCGGCTACGTGTTCGCGCGCGAGCCACAACACCGGAGTCACCTAGTGCAG,3840 fluorescence intensity (a.u.)
11,GCGATTCCATAATGGTGAGTCAGTGACAGAGCAAACCATGCGGAGTCACCTAGTGCAG,6070 fluorescence intensity (a.u.)
12,GGAACTGATAGGTAAAGGTCAGACTGTGTCACGGGCGCTGCGGAGTCACCTAGTGCAG,4670 fluorescence intensity (a.u.)
13,CTTACGGACAATGCGTATGACGCACGCCCGGATTAACGTCCGGAGTCACCTAGTGCAG,6680 fluorescence intensity (a.u.)
14,GCGTACGCGCATCCACGCGTACGCGATCGACGATCCCCTCCGGAGTCACCTAGTGCAG,4730 fluorescence intensity (a.u.)
15,ATGAGGGAAGTGTGGCGCTGTAGCTTCGGGTGGTGGGGCTCGGAGTCACCTAGTGCAG,3790 fluorescence intensity (a.u.)
16,TGGCCCCACCTGTCAGTGTCCGTACCGGTCCACGCGTGTGCGGAGTCACCTAGTGCAG,4310 fluorescence intensity (a.u.)
17,CTTATATGACTCATTTTATACTTCTAAAAGGAAACAAGCTCGGAGTCACCTAGTGCAG,5430 fluorescence intensity (a.u.)
18,AGAGAAGGAATATTATAGTGCTGACACACTATCTCAATGTCGGAGTCACCTAGTGCAG,7100 fluorescence intensity (a.u.)
19,CGGTCACACGGAAGACGTGGCCGGTGATTCGTACTCTCCACGGAGTCACCTAGTGCAG,5350 fluorescence intensity (a.u.)
20,CGATCTCCGTCCATCGATATGTCACGTACTCCTCACCAACCGGAGTCACCTAGTGCAG,4380 fluorescence intensity (a.u.)
21,AAATATTTTCTAATATTATGAATCTGAATAGGTAGCTTGTCGGAGTCACCTAGTGCAG,28300 fluorescence intensity (a.u.)
22,CTTTAGTGCACCTGCAGTAGGTGTCACTGATATGTGGGTCCGGAGTCACCTAGTGCAG,3150 fluorescence intensity (a.u.)
23,CTCCCTTGCCGTCCCAGTTTCCCTGTATTCTGCATGCCGTCGGAGTCACCTAGTGCAG,3570 fluorescence intensity (a.u.)
24,ACCGACGTGCGCGTTGCGTCGCGTCGCGTGCGTCTCCCCTCGGAGTCACCTAGTGCAG,3370 fluorescence intensity (a.u.)
25,TACTATAATTTGACCTCACGCCCTTGAGTTCATTGAGGATCGGAGTCACCTAGTGCAG,14600 fluorescence intensity (a.u.)
26,GGCGGCCGTTTGAAGTCAACAATGTAACACGTGGCCGAATCGGAGTCACCTAGTGCAG,8470 fluorescence intensity (a.u.)
27,TCTCCCACGTCCGCGCGCCGCCGCCTCCCTCCTCGCCACCCGGAGTCACCTAGTGCAG,3230 fluorescence intensity (a.u.)
